Reference: paper PMC12811253

Biological target: T1, Flag-USP13, full-length (UniProt Q92995)
T1 sequence: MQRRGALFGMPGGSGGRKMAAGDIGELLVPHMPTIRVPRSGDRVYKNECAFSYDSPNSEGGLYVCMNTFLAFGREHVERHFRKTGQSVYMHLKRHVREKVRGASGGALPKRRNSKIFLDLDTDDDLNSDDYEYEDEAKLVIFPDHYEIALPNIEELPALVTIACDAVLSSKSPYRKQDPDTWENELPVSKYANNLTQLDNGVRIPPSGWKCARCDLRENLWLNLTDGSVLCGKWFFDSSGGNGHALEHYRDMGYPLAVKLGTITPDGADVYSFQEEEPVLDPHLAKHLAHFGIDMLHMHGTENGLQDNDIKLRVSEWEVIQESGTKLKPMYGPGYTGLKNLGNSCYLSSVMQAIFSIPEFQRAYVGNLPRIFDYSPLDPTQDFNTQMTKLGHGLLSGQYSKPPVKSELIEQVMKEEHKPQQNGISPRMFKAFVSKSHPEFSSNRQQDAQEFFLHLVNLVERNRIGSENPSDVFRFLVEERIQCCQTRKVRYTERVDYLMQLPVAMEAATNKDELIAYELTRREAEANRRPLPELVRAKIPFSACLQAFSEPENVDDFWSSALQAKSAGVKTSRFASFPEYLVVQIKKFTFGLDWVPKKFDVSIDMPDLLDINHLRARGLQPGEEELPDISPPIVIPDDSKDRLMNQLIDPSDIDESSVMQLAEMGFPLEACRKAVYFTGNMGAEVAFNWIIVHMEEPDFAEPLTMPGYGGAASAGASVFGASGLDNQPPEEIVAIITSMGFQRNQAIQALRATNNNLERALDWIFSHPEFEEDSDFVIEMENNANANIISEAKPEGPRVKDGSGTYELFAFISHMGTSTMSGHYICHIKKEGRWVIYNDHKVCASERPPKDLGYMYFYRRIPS
Test: co-IP; HEK293 cells co-transfected with 2 μg Flag-USP13 and full-length or mutant Myc-ACLY, 24 h, NP-40 buffer; Flag antibody for co-IP, detection by Myc antibody

Myc-ACLY deletion mutant: CoA ligase domain (domain or fragment)
binding: binds

Results are given in words; binding and its absence hold for the method and conditions named. Binding seen in cells or lysates may run through a third protein. Binding can be weak; no strength is given. Tags and fused reporters may be left off the sequences shown.
